Among the data in paper PMC5732150 are binding values, retold here.

No constants are given. Whether binding was seen depends on the method and setting. Binding seen in cells or lysates may run through a third protein. Binding can be weak; no strength is given.

Assay [1] has as its target T1, CD44 (mouse (endogenous in splenic B lymphocytes)) (UniProt P15379).
T1 sequence: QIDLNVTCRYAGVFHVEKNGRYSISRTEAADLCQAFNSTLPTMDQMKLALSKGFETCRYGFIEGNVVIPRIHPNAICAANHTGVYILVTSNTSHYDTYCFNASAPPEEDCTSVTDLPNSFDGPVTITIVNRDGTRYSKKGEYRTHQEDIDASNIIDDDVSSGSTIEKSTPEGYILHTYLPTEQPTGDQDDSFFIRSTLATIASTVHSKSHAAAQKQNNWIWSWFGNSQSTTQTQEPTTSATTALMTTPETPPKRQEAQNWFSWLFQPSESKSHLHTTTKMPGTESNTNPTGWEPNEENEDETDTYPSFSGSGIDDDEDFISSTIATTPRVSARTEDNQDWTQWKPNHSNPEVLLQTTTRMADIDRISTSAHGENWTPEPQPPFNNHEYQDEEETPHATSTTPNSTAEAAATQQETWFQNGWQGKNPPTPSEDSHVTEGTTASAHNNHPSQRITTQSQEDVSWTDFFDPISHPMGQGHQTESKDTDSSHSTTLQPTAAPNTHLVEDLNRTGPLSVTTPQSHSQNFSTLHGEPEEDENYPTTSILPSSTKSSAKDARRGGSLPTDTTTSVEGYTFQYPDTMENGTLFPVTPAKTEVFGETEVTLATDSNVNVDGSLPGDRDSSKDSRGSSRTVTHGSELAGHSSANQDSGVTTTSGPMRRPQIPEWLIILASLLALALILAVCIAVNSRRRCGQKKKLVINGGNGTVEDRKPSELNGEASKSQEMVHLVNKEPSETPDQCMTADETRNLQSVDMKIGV
In words: co-IP; Lysates (RIPA buffer, 1% Triton X-100) of resting, LPS plus IL-4 activated, HA-stimulated or CD44-capped mouse B lymphocytes; precipitated with α-Myo1g or NIM-R8 (α-CD44), 4 h at 4°C, protein G-agarose; Western blot; CD44 precipitates compared between WT and Myo1g-deficient cells. Background: In western blotting, separated proteins are transferred to a membrane and probed.

For assay [2], the target named is T2, Myosin 1g (mouse (endogenous in splenic B lymphocytes)) (UniProt Q5SUA5).
T2 sequence: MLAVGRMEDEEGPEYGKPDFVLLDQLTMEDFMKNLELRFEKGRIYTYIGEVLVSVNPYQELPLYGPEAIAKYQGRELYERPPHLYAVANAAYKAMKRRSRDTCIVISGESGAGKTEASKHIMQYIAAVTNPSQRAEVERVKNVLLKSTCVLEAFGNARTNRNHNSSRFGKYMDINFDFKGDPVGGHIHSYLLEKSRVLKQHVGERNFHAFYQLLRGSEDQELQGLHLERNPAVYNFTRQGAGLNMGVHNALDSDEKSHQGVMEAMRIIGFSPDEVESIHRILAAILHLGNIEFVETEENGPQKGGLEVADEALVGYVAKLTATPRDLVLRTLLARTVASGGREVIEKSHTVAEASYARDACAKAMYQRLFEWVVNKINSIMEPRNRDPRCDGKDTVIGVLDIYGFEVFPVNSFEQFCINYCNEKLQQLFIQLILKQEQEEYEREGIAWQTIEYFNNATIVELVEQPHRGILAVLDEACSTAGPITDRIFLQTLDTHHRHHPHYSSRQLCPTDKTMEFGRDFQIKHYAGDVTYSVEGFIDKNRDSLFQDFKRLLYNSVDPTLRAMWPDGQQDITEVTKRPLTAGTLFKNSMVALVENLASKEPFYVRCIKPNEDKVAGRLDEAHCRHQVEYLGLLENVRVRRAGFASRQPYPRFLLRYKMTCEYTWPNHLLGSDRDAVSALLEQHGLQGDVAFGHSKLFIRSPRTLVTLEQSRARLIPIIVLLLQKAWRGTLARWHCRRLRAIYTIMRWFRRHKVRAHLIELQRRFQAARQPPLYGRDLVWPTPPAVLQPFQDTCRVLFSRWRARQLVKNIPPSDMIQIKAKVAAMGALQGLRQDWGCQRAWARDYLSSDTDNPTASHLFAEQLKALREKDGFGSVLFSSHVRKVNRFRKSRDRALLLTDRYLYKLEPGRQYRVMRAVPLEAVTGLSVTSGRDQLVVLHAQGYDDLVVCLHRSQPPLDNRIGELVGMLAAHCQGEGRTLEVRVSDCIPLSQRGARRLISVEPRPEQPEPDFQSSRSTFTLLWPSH
Described as above.

As to Rab5, the binding result in assay [1] is “binds”.

On to caveolin, for which, in assay [2], the binding result is “binds”.
